Assay results reported in PMC8141886.
Results are given in words; binding and its absence hold for the method and conditions named. In cells and extracts the contact can be indirect. Some entries that bind do so weakly or less than the wild type. Blank lines part the entries; values can stand above or below the substance they belong to.

Protein sequences, listed by entry. Tags and fused reporters are not part of them. Lines headed by an entry give the natural chain unless they say otherwise; changes in a name come on top.
UniProt P08047: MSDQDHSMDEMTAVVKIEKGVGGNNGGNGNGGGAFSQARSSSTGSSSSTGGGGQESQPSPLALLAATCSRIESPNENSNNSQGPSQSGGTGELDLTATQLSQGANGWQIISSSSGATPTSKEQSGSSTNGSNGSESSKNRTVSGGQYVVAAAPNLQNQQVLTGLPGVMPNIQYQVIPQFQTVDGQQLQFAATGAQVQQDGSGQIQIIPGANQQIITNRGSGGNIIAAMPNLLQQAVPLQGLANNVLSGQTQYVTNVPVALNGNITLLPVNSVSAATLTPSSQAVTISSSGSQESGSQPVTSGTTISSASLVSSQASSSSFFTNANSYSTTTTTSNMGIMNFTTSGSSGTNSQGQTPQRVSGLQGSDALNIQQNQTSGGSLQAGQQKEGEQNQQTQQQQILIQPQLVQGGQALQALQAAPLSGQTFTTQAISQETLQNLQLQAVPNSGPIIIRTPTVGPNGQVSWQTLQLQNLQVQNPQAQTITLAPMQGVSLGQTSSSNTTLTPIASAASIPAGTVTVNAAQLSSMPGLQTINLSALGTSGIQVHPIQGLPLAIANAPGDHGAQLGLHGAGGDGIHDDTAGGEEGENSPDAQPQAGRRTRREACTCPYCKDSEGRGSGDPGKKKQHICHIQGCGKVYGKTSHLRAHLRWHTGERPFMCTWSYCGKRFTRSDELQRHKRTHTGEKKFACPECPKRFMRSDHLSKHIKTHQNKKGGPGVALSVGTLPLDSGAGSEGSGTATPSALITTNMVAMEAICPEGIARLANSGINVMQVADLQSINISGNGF
UniProt Q14145: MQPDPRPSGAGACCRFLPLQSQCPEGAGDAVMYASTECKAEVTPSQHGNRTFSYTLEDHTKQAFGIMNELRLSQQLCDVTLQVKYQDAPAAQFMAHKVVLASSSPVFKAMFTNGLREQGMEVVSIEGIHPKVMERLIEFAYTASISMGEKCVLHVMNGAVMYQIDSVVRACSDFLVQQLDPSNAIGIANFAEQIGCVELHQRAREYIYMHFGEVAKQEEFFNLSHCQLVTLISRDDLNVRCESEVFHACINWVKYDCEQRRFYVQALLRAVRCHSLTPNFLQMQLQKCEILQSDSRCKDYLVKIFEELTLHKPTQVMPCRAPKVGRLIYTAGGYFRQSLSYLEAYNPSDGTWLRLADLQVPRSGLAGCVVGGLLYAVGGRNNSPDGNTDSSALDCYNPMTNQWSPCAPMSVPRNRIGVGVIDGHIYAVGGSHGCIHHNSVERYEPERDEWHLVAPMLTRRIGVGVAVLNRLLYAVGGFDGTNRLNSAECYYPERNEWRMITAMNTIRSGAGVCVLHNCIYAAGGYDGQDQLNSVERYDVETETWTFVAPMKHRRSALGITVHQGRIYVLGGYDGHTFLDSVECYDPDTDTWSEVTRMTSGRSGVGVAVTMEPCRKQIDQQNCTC

Legend:
Nrf2-VC (human) = target: T1, Nrf2-VC (human) (UniProt Q16236); test: split reporter; BiFC with Venus fragments VN155 and VC155 co-expressed in Hep3B cells; fixed 24 h after transfection, confocal microscopy
T1 sequence: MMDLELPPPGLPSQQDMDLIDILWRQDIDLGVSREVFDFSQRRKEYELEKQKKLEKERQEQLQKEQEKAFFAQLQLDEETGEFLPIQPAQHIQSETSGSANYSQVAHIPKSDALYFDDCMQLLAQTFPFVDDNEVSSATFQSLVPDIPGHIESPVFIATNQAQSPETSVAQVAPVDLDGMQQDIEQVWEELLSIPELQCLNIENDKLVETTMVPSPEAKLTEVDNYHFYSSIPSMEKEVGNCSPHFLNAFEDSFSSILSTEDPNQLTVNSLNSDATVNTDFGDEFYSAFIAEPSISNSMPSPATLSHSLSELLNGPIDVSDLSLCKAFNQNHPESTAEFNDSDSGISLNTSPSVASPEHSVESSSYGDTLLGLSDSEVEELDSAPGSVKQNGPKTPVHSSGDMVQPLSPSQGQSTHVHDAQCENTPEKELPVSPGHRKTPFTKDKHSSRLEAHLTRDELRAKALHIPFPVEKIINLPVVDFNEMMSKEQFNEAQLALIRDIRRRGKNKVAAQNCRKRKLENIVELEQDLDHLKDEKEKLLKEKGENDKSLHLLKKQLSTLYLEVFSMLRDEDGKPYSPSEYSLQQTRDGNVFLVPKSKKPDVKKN

[1] = target: Myc-Sp1 full-length (human) (UniProt P08047); test: co-IP; Hep3B cells transfected with Myc-Sp1 constructs; lysate (50 mM Tris-HCl pH 8.0, 150 mM NaCl, 1% Triton X-100) precipitated with anti-Myc antibody and protein G-Sepharose at 4 °C; blot with anti-Keap1
[2] = target: Keap1 fused to the C-terminal fragment of Venus (VC155) (human) (UniProt Q14145); test: split reporter; BiFC with Venus fragments VN155 and VC155 co-expressed in Hep3B cells; fixed 24 h after transfection, confocal microscopy
[3] = target: FLAG-Keap1 full-length (human) (UniProt Q14145); test: co-IP; Hep3B cells transfected with FLAG-Keap1 constructs; lysate (50 mM Tris-HCl pH 8.0, 150 mM NaCl, 1% Triton X-100) precipitated with anti-FLAG antibody and protein G-Sepharose at 4 °C; blot with anti-Sp1

binding (Nrf2-VC (human)): binds
Substance: FLAG-WDR23 isoform 1-VN (from UniProt Q8TEB1-1 1-546) (other; other documents disagree on this pair)

binding [1]: binds
Substance: Keap1 (endogenous, Hep3B) (from UniProt Q14145 1-624)

binding [2]: binds
Substance: N-terminal fragment of Venus (VN155, I152 L) fused to the N terminal of Sp1 (from UniProt P08047-1 1-785)

binding [3]: binds
Substance: Sp1 (endogenous, Hep3B) (from UniProt P08047-1 1-785)
